Test [1] concerns the target T1, FLAG-hFBXL3 (human FBXL3) (human) (UniProt Q9UKT7).
T1 sequence: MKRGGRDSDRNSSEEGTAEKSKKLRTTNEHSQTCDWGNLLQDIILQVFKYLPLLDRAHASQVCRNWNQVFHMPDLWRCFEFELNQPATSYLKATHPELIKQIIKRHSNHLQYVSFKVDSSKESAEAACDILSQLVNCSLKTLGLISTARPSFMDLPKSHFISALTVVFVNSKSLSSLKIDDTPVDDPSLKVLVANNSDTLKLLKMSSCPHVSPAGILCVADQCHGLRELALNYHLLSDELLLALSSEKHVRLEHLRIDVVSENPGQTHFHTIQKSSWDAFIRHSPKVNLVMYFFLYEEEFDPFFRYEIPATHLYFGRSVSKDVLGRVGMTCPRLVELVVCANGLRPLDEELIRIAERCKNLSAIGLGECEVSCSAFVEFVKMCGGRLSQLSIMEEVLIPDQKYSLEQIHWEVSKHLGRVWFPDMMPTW
The test can be described thus: co-IP; HEK293 cells co-transfected with hCRY2-His-Myc (WT or A260T) and FLAG-hFBXL3, 10 uM MG132 for 6 hr before harvest; complex taken on anti-FLAG M2 affinity gel and eluted with 300 ug/ml 3xFLAG peptide.

For test [2], the target named is T1, FLAG-hFBXL3 (human FBXL3) (human). As to the kind of experiment: co-IP; FAD competition assay: CRY2-FBXL3 complex from co-transfected HEK293 cells (10 uM MG132, 6 hr) held on anti-FLAG M2 affinity gel; FAD added in 40 ul PBS for 2 hr on ice; released CRY2 in the supernatant, CRY2 still bound to FLAG-FBXL3 eluted with SDS sample buffer.

The source of these data is paper PMC5398888.

No constants are given. Whether binding was seen depends on the method and setting. Binding seen in cells or lysates may run through a third protein. Some results given as binding are weak or reduced against the parent protein; the word gives no strength. Tags and fused reporters may be left off the sequences shown.

B1: hCRY2-A260T-Myc-His (human Cryptochrome 2, A260T) (protein, UniProt Q49AN0 1-593)
chain: MAATVATAAAVAPAPAPGTDSASSVHWFRKGLRLHDNPALLAAVRGARCVRCVYILDPWFAASSSVGINRWRFLLQSLEDLDTSLRKLNSRLFVVRGQPADVFPRLFKEWGVTRLTFEYDSEPFGKERDAAIMKMAKEAGVEVVTENSHTLYDLDRIIELNGQKPPLTYKRFQAIISRMELPKKPVGLVTSQQMESCRAEIQENHDETYGVPSLEELGFPTEGLGPAVWQGGETEALARLDKHLERKAWVANYERPRMNTNSLLASPTGLSPYLRFGCLSCRLFYYRLWDLYKKVKRNSTPPLSLFGQLLWREFFYTAATNNPRFDRMEGNPICIQIPWDRNPEALAKWAEGKTGFPWIDAIMTQLRQEGWIHHLARHAVACFLTRGDLWVSWESGVRVFDELLLDADFSVNAGSWMWLSCSAFFQQFFHCYCPVGFGRRTDPSGDYIRRYLPKLKAFPSRYIYEPWNAPESIQKAAKCIIGVDYPRPIVNHAETSRLNIERMKQIYQQLSRYRGLCLLASVPSCVEDLSHPVAEPSSSQAGSMSSAGPRPLPSGPASPKRKLEAAEEPPGEELSKRARVAELPTPELPSKDA
Regarding B1, the binding result in test [1] and in test [2] was “binds” throughout.

B2: hCRY2-WT-Myc-His (human Cryptochrome 2, wild type) (protein, UniProt Q49AN0 1-593)
chain: MAATVATAAAVAPAPAPGTDSASSVHWFRKGLRLHDNPALLAAVRGARCVRCVYILDPWFAASSSVGINRWRFLLQSLEDLDTSLRKLNSRLFVVRGQPADVFPRLFKEWGVTRLTFEYDSEPFGKERDAAIMKMAKEAGVEVVTENSHTLYDLDRIIELNGQKPPLTYKRFQAIISRMELPKKPVGLVTSQQMESCRAEIQENHDETYGVPSLEELGFPTEGLGPAVWQGGETEALARLDKHLERKAWVANYERPRMNANSLLASPTGLSPYLRFGCLSCRLFYYRLWDLYKKVKRNSTPPLSLFGQLLWREFFYTAATNNPRFDRMEGNPICIQIPWDRNPEALAKWAEGKTGFPWIDAIMTQLRQEGWIHHLARHAVACFLTRGDLWVSWESGVRVFDELLLDADFSVNAGSWMWLSCSAFFQQFFHCYCPVGFGRRTDPSGDYIRRYLPKLKAFPSRYIYEPWNAPESIQKAAKCIIGVDYPRPIVNHAETSRLNIERMKQIYQQLSRYRGLCLLASVPSCVEDLSHPVAEPSSSQAGSMSSAGPRPLPSGPASPKRKLEAAEEPPGEELSKRARVAELPTPELPSKDA
For B2, the binding result in test [1] and in test [2] was “binds” each time.
